Test results reported in patent US7351790 (dated 2008).

Experiment: general procedure: Fmoc solid-phase peptide synthesis; O-Bis-(aminoethyl)ethylene glycol trityl resin; HBTU
Conditions: whole synthesis

Substance	crude mass (scale 0.1 mmol) [mg]	crude mass (scale 0.25 mmol) [mg]
ClCH2CO-Lys(PEG2000)-Cys(tBu)-Arg-Gly-Asp-Cys(tBu)-Phe-Cys-Gly-NH—(CH2CH2O)2CH2CH2NH2	110	
ClCH2CO-Lys (Hexanoyl)-Cys(tBu)-Arg-Gly-Asp-Cys(tBu)-Phe-Cys-Gly-NH—(CH2CH2O)2CH2CH2NH2	100	
ClCH2CONH-Asp-Cys(MBzl)-Arg-Gly-Asp-Cys(MBzl)-Phe-Cys-Gly-NH—(CH2CH2O)2CH2CH2NH2		250
